In patent US6630583B1 (priority 1998, dated 2003):

Assay: peptide made by a vendor
Conditions: whole synthesis, HPLC; mass spectrographic analysis

## MRKEFHNVLSSGQLLADKRPARDYNRK (listed as Streptococcus pneumoniae)
  purity (crude or final not stated): 90% pure

End groups of sequences in plain letters are not given here.
